Some of the results follow.
Target: OsWRKY34 (Oryza sativa, UniProt Q0JBA9 1-250)
Test: protein-binding microarray (RPBM); PBS, 2% BSA, 51.3 ng/ul salmon testes DNA, 50 uM zinc acetate, 200 nM TF, 25 C, 1 h; high values mean tight binding
Details: protein: recombinant; tags: N-terminal polyhistidine and DsRed monomer fusion (pET32a); label: CyDye5-dUTP incorporated in the synthesized complementary strand; 3' TTTTT single-stranded linker to array surface; dsDNA, one strand shown
Method in brief: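 The binding signal is fluorescence intensity per array feature (arbitrary units). Readings came from an Axon 4000B scanner after a washed, 2% BSA-blocked, double-stranded custom Agilent array had been incubated for 1 h at 25 °C with 200 nM protein and 50 µM zinc acetate. The protein was a Ni–NTA-purified transcription factor fused N-terminally to polyhistidine and DsRed, expressed in E. coli BL21-CodonPlus.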

Chains of the proteins cited; added tags and fusions are not shown.
UniProt Q0JBA9, entry or part of it: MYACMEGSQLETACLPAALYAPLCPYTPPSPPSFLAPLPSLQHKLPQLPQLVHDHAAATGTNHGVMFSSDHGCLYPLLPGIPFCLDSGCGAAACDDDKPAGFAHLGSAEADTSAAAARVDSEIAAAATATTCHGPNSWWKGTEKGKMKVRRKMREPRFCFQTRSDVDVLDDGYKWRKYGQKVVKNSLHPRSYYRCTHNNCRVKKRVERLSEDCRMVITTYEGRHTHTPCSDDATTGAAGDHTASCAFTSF

Row | Sequence | binding signal
1 | TAATTGTTGTCTTATTTCTTCTTCTGCGCCGAATGCTCAACGGAGTCACCTAGTGCAG | 8600 fluorescence intensity (a.u.)
2 | GCTCAGGACACTAAAAAGCTTCTATCTTTGACTTGGAAGACGGAGTCACCTAGTGCAG | 10500 fluorescence intensity (a.u.)
3 | CTCTTCTTTCCATTGTTAACCTTCGATTGAACAATTAGGTCGGAGTCACCTAGTGCAG | 8920 fluorescence intensity (a.u.)
4 | TGCTTCTCTCTGTTTGTTGGTTGTTGCCCATATTATCATTCGGAGTCACCTAGTGCAG | 9530 fluorescence intensity (a.u.)
5 | CCCAGCTTTCCTCGCTAATGCATATTCCGTCCATGACCACCGGAGTCACCTAGTGCAG | 8220 fluorescence intensity (a.u.)
6 | CTGCCCACCCCGACCTCCATCCATGGCGTTCTCTCTCTCTCGGAGTCACCTAGTGCAG | 9930 fluorescence intensity (a.u.)
7 | CATGGTTTCCAAGCCGACCAAGCAACCTCTGCCCGCGTTTCGGAGTCACCTAGTGCAG | 8490 fluorescence intensity (a.u.)
8 | GCCGCCGCCTCCTCTGTCTGCCGCCACCGCCGCCGCCGCCCGGAGTCACCTAGTGCAG | 9520 fluorescence intensity (a.u.)
9 | CTCTGCTTCTTGGTTTGAACACTCATGCTAGTTTTTTATTCGGAGTCACCTAGTGCAG | 8220 fluorescence intensity (a.u.)
10 | ACGTCTCCACCACCACCACCGGCCAAACGCCGACCTCATCCGGAGTCACCTAGTGCAG | 9450 fluorescence intensity (a.u.)
11 | CTCGGCCTCGGCCTCGAATTTCGTCTCCTCGCCCGCCGCTCGGAGTCACCTAGTGCAG | 10700 fluorescence intensity (a.u.)
12 | AATTTGGATACCCTGCAGAAGTACGTGAATTTTTACATTTCGGAGTCACCTAGTGCAG | 8650 fluorescence intensity (a.u.)
13 | CAGGAACCAGTTTAGATGAGACTTTTGACTTTTTACTATTCGGAGTCACCTAGTGCAG | 8700 fluorescence intensity (a.u.)
14 | GGTGGGGAGGGAAGAGGAGGCGGGCCTCCAATTTCGCCTCCGGAGTCACCTAGTGCAG | 9910 fluorescence intensity (a.u.)
15 | CCGCGCCACCAAACACTCGAGCTCGCCGGACTTAGGGTTTCGGAGTCACCTAGTGCAG | 8280 fluorescence intensity (a.u.)
16 | AATCACCTCCCTTATCTTACCTGCATGACAAATGCCTCGACGGAGTCACCTAGTGCAG | 8590 fluorescence intensity (a.u.)
17 | ACGCCGGCTTCTTCGTCCTCTTCTTCTTCTTCTTCTTCTTCGGAGTCACCTAGTGCAG | 11900 fluorescence intensity (a.u.)
18 | GCCAGCTCGTGCCGCACAATGCCACCACCAGACTTACAGACGGAGTCACCTAGTGCAG | 10100 fluorescence intensity (a.u.)
19 | GGGCCACGGGTTTATTATTTTTGGATTCAAATTGCCACATCGGAGTCACCTAGTGCAG | 10400 fluorescence intensity (a.u.)
20 | AGCGCCCGGCTACGACGACACCTTGCCGCCGATCGTCTTCCGGAGTCACCTAGTGCAG | 9490 fluorescence intensity (a.u.)
21 | CCCACACAGCATTCAGGCCTCGTTCTTCGCACTGGGCCCTCGGAGTCACCTAGTGCAG | 8590 fluorescence intensity (a.u.)

Row | Sequence | binding signal
22 | TTTGTAGGGTCTGAATTAATTTTTTTCCCCTTGCTCCACACGGAGTCACCTAGTGCAG | 8120 fluorescence intensity (a.u.)
23 | GATACTCCCTCCATCCATAAATATTTGATGCCGTTGACTTCGGAGTCACCTAGTGCAG | 12300 fluorescence intensity (a.u.)
24 | GGTTGTATGAGTCGAATATTTACTTGCACTTTTATATAGCCGGAGTCACCTAGTGCAG | 11100 fluorescence intensity (a.u.)
25 | GAGGTGAGAGCGGCTTCTGGCCGCGACGTGGGAGGGTGGGCGGAGTCACCTAGTGCAG | 8280 fluorescence intensity (a.u.)
26 | GTTGCCCTATTCTGTACCCATGAATTAAATTATTTGCTGACGGAGTCACCTAGTGCAG | 8280 fluorescence intensity (a.u.)
27 | TAACGACTCCGCCCCTCACCCACCACCCCACCCATCGCCTCGGAGTCACCTAGTGCAG | 10200 fluorescence intensity (a.u.)
28 | AGGGGAGGGGCTACAGAACTCCAATCCACCGTAGGTTTGTCGGAGTCACCTAGTGCAG | 8780 fluorescence intensity (a.u.)
29 | GCCAGGTGATTTCCATGAGCGCGGGTTGGGTAGTGTACACCGGAGTCACCTAGTGCAG | 10400 fluorescence intensity (a.u.)
30 | CCTTGGCGTCATTGGTTTACAGTCGTGTACTCGTGTACTACGGAGTCACCTAGTGCAG | 8550 fluorescence intensity (a.u.)
31 | GCTTGGAGCATCAGAGACTCATACGGGTTTCACATTCTCTCGGAGTCACCTAGTGCAG | 8200 fluorescence intensity (a.u.)
32 | GCATCCTTCACACACAGTAACAATTTATGCGCAACCAAGTCGGAGTCACCTAGTGCAG | 10700 fluorescence intensity (a.u.)
33 | TCTCGGCCAACCCACATACAGCTAGCCACCATATTTTAAGCGGAGTCACCTAGTGCAG | 9970 fluorescence intensity (a.u.)
34 | ACACAACAAAGACACCATCCATGTTTTTCTTTTTCTTTTTCGGAGTCACCTAGTGCAG | 8250 fluorescence intensity (a.u.)
35 | ATCTGGTGCCTTTCGATTTTCACAGGAGGTCTACTAATTGCGGAGTCACCTAGTGCAG | 8240 fluorescence intensity (a.u.)
36 | AAATATTATGTGGTCAAGTTCCTATTTTGATCCATCCACCCGGAGTCACCTAGTGCAG | 8410 fluorescence intensity (a.u.)
37 | TTGTAACTAACTTTCTTGTTTACCGTGAGCACGTTTTTTACGGAGTCACCTAGTGCAG | 8820 fluorescence intensity (a.u.)
38 | GTTGTTGGGTTTGCAAAAGATTCGGCCATCTCTCTTCAGCCGGAGTCACCTAGTGCAG | 8350 fluorescence intensity (a.u.)
39 | GCCAAGAACACATCACTTCCATTAGCTCAGCTTCTCACCACGGAGTCACCTAGTGCAG | 8780 fluorescence intensity (a.u.)
40 | TTTTTCCATACTTCAATCTTTTTTCACATCTTATCAGTTACGGAGTCACCTAGTGCAG | 11900 fluorescence intensity (a.u.)
41 | CCATGGAAAACCCTACCACTCCTCGCGCGGTTTTACTTTGCGGAGTCACCTAGTGCAG | 8850 fluorescence intensity (a.u.)
42 | ACCTTCTTCTTGGTCAAAGCCATCCATCCCACCACTCACCCGGAGTCACCTAGTGCAG | 8500 fluorescence intensity (a.u.)

Reprinted at random: 2 entries already listed
Row | Sequence | binding signal
20 | AGCGCCCGGCTACGACGACACCTTGCCGCCGATCGTCTTCCGGAGTCACCTAGTGCAG | 9490 fluorescence intensity (a.u.)
2 | GCTCAGGACACTAAAAAGCTTCTATCTTTGACTTGGAAGACGGAGTCACCTAGTGCAG | 10500 fluorescence intensity (a.u.)

Reference: publication PMC7819943, “Rice protein-binding microarrays: a tool to detect cis-acting elements near promoter regions in rice”
